Results are given in words; binding and its absence hold for the method and conditions named. In cells and extracts the contact can be indirect. Some entries that bind do so weakly or less than the wild type.
What was measured:
[1] = molecular target: T1, Aquaporin 9 (mouse (endogenous in retina)) (UniProt Q9JJJ3); assay: co-IP; retinal lysate (800 ug protein; lysate incubated in 1% SDS for 30 min) of WT mice with sham operation, also compared with WT mice 7 days after optic nerve crush (ONC); anti-AQP9 antibody (ab84828) and Dynabeads Protein A, room temperature; immunoblot for MCT1, MCT2, MCT4
T1 sequence: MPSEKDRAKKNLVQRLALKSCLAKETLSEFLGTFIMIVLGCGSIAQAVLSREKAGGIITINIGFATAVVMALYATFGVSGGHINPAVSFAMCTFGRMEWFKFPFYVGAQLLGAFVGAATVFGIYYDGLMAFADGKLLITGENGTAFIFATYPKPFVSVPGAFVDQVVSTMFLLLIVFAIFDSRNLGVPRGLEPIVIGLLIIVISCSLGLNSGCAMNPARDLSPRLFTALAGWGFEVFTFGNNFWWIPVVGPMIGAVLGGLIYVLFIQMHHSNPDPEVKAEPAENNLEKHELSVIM

[2] = molecular target: T1, Aquaporin 9 (mouse (endogenous in retina)); assay: co-IP; as a1, but retinal lysate of WT mice 7 days after optic nerve crush (ONC); anti-AQP9 antibody (ab84828) and Dynabeads Protein A; immunoblot for MCT4

B1: Monocarboxylate transporter 1 (protein, UniProt P53986 1-493)
chain: MPPAIGGPVGYTPPDGGWGWAVLVGAFISIGFSYAFPKSITVFFKEIEVIFSATTSEVSWISSIMLAVMYAGGPISSILVNKYGSRPVMIAGGCLSGCGLIAASFCNTVQELYLCIGVIGGLGLAFNLNPALTMIGKYFYKKRPLANGLAMAGSPVFLSTLAPLNQAFFDIFDWRGSFLILGGLLLNCCVAGSLMRPIGPEQVKLEKLKSKESLQEAGKSDANTDLIGGSPKGEKLSVFQTINKFLDLSLFTHRGFLLYLSGNVVMFFGLFTPLVFLSSYGKSKDFSSEKSAFLLSILAFVDMVARPSMGLAANTKWIRPRIQYFFAASVVANGVCHLLAPLSTTYVGFCVYAGVFGFAFGWLSSVLFETLMDLIGPQRFSSAVGLVTIVECCPVLLGPPLLGRLNDMYGDYKYTYWACGVILIIAGIYLFIGMGINYRLLAKEQKAEEKQKREGKEDEASTDVDEKPKETMKAAQSPQQHSSGDPTEEESPV
[1]
  binding: binds

B2: Monocarboxylate transporter 2 (protein, UniProt O70451 1-484)
chain: MPSEPSAPLPQPLPPDGGWGWVVVCASFISIGFSYAFPKAVTVFFKDIQEIFNTTSSQIAWISSIMLAVMYAGGPISSVLVNNYGSRPVVIVGGLLCCIGMILASYSNSVIELYLTVGFIGGLGLAFNLQPALTIIGKYFYRRRPLANGCAMAGSPVFLSTLAPFNQYLFNNYGWKGSFLILGGIFLHSCVAGCLMRPVGPSPNTKKSKSKVGSRHDSTLKKASKVSTAQKVNRFLDFSLFMHRGFLIYLSGNVILFLGIFAPIIFLAQYAKHIGVDDYNSAFLLSVMAFIDMFARPSVGLIANTSLIRPRIQYLFSSAIIFTGICHLLCPLATTYSALVVYVVFFGLGFGSISSLLFECLMDIVGATRFSSAVGLTTIVECCPVLFGPPLAGKLLDITGEYKYLYIASGTVVLVSGTYLLIGNAINYRLLDKERKREKAKKKKSASHASREMEALNRSKQDEVTVKASNAHNPPSDRDKESNI
[1]
  binding: binds

B3: Monocarboxylate transporter 4 (protein, UniProt P57787 1-470)
chain: MGGAVVDEGPTGIKAPDGGWGWAVLFGCFIITGFSYAFPKAVSVFFKELMHEFGIGYSDTAWISSILLAMLYGTGPLCSVCVNRFGCRPVMLVGGLFASLGMVAASFCRSIIQIYLTTGVITGLGLALNFQPSLIMLNRYFNKRRPIANGLAAAGSPVFLCALSPLGQLLQDHYGWRGGFLILGGLLLNCCVCAALMRPLVAPQVGGGTEPRGPQRPPQRLLDLSVFRDRGFLIYAVAASIMVLGLFVPPVFVVSYAKDMGVPDTKAAFLLTILGFIDIFARPTAGFITGLKKVRPYSVYLFSFAMFFNGFTDLTGSTATDYGGLVVFCIFFGISYGMVGALQFEVLMAIVGTQKFSSAIGLVLLLEAVAVLIGPPSGGKLLDATKVYKYVFILAGAEVLTSSLVLLLGNFFCIGKRKRPEVTEPEEVASEEKLHKPPVDVGVDSREVEHFLKAEPEKNGEVVHTPETSV
[2]
  binding: binds weakly
[1]
  binding: binds
